Percent effect of library compounds

Sequences of proteins named here, by UniProt entry; tags and fusion partners are left off. Residues count along the entry.
UniProt Q4DA54, 1-478: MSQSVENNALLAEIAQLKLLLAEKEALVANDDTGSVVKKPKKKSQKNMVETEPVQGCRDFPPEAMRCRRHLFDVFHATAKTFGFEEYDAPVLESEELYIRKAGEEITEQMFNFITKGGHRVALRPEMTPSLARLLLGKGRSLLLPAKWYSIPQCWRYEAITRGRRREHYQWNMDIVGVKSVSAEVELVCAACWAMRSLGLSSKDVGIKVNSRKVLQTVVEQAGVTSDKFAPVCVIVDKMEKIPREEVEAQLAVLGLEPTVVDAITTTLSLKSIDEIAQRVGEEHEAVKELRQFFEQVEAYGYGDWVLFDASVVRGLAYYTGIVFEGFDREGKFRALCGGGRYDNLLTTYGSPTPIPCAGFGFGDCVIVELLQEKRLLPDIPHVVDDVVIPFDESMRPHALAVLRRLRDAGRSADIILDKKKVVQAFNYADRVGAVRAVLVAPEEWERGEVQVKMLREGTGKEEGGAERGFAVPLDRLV
UniProt P9WFT3, whole entry: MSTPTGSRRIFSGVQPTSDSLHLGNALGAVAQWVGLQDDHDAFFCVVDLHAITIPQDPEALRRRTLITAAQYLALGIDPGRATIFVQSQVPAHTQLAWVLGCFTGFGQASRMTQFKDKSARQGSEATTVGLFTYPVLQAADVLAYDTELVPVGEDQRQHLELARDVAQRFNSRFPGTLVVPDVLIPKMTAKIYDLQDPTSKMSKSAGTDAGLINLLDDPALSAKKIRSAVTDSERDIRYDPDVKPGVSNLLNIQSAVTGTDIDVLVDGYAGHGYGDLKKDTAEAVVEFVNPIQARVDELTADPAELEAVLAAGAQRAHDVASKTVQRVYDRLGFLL
UniProt I6X8D2, whole entry: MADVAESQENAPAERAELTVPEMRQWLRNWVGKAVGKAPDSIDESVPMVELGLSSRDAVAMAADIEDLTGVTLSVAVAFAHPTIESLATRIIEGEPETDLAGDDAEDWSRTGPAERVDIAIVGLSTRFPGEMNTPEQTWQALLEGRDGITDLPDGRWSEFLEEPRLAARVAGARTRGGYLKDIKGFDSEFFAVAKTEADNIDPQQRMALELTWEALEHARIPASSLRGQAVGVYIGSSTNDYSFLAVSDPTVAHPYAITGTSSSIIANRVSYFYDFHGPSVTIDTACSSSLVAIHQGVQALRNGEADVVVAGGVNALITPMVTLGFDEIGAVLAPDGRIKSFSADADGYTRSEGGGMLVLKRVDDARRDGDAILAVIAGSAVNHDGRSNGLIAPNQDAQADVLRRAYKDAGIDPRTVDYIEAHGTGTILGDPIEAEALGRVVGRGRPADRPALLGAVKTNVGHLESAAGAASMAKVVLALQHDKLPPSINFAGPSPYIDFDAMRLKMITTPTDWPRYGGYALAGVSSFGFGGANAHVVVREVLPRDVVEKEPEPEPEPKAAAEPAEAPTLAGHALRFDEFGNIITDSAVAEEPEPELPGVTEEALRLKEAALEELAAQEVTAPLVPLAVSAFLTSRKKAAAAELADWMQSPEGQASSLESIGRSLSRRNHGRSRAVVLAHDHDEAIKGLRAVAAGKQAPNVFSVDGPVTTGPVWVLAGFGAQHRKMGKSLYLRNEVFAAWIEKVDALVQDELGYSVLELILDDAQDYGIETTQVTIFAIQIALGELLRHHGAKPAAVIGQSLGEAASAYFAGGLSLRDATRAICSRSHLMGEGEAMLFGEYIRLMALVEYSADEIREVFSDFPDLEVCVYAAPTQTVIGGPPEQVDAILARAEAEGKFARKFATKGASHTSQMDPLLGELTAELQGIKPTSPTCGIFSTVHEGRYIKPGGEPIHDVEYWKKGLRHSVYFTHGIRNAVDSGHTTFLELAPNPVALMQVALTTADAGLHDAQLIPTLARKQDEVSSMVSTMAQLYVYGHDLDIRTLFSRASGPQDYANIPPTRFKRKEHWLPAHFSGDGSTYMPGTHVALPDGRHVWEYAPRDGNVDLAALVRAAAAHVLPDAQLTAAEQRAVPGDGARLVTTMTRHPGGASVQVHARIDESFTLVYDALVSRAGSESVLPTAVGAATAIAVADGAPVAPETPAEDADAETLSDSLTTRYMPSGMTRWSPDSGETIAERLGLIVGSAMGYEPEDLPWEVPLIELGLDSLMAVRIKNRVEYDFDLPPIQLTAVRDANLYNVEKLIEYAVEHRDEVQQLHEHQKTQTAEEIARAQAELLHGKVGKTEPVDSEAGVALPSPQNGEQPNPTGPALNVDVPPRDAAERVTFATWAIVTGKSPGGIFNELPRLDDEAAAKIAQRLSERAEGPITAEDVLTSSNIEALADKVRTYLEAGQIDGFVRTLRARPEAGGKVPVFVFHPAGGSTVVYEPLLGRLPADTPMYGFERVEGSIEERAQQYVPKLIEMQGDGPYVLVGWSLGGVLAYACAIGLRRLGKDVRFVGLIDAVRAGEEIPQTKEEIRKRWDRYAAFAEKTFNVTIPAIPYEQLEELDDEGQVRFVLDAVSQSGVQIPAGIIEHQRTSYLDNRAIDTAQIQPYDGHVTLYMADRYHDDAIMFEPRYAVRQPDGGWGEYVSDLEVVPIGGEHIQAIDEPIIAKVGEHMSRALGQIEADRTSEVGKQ
UniProt Q8IDJ8, 1-583: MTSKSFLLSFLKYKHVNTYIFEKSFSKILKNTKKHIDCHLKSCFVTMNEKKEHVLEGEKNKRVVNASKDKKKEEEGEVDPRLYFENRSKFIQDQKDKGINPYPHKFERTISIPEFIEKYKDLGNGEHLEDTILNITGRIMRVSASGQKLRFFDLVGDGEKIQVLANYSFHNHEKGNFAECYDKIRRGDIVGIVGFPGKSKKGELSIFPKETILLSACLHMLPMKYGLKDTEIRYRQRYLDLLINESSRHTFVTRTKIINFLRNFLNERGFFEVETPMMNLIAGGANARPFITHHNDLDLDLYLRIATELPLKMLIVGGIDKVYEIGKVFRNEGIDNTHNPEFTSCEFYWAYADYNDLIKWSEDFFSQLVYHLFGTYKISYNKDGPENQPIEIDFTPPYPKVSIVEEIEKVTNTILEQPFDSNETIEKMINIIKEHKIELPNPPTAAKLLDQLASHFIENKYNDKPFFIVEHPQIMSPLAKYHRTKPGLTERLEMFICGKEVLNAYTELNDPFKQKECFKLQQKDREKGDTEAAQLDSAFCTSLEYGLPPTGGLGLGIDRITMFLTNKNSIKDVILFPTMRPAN

The values are deposited in ChEMBL (CHEMBL3988442, “University of Dundee, Small-Polar-MMV Screening Library” (2021)).

TcHisRS: 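Histidine-tRNA ligase, Trypanosoma cruzi CL Brener (UniProt Q4DA54). Enzyme assay of histidyl-tRNA synthetase; the read-out is not stated. Concentration: 30 µM. Direction is inferred from retests: higher values go with stronger inhibition. Size under these conditions: about 69,000 compounds, about 31 of them at 50% or above in at least one test.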
MtTrpRS: 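Tryptophan-tRNA ligase, Mycobacterium tuberculosis (UniProt P9WFT3). Enzyme assay of tryptophanyl-tRNA synthetase; the read-out is not stated. Compounds at 10 µM. Higher most likely means stronger inhibition; the record gives no direction and few retests gave an IC50. Size under these conditions: about 65,000 compounds, about 64 of them at 50% or above in at least one test.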
Pks13 thioesterase: 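Polyketide synthase Pks13, Mycobacterium tuberculosis (UniProt I6X8D2). Enzyme assay of the thioesterase domain of polyketide synthase 13; the read-out is not stated. Concentration: 30 µM. The record gives no direction; the compounds picked for IC50 retests had high values, so higher reads as stronger inhibition. Size under these conditions: about 67,000 compounds, about 300 of them at 50% or above in at least one test.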
PfKRS1: 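Enzyme assay of the cytosolic lysyl-tRNA synthetase in 384-well plates, read by luminescence. Target: Lysine-tRNA ligase, Plasmodium falciparum 3D7 (UniProt Q8IDJ8). Concentration: 30 µM. Direction is inferred from only a few compounds that gave an IC50; most scored high, so higher reads as stronger inhibition. Size under these conditions: about 69,000 compounds, about 49 of them at 50% or above in at least one test.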
Toxoplasma: 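Assay of Toxoplasma gondii numbers, read through their beta-galactosidase reporter with a colour substrate. Concentration: 10 µM. The record gives no direction; the compounds picked for IC50 retests had high values, so higher reads as fewer parasites. Of about 67,000 compounds tested this way, about 260 (0.38%) reached 50% or more in at least one test.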

Each number is a percent effect as filed.
How 0% and 100% were set is not recorded. Most values in the screen are low, and negative values occur.
The compounds are a random part of those screened.

c1cnc(NCc2cncc3c2CCN(Cc2cccnc2)C3)nc1 gave TcHisRS: 3.941%; MtTrpRS: -2.222%; Pks13 thioesterase: -5.452%; PfKRS1: -7.732%.
CN(C)[C@@H]1CCN(C(=O)CC2CC2)[C@H]1Cc1cnn(C)c1 gave TcHisRS: 8.824%; MtTrpRS: -3.284%; Pks13 thioesterase: -5.819%; PfKRS1: 2.821%.
Cl.Cl.O=C(NC[C@H]1OC[C@@H](NC2CCNCC2)[C@@H]1O)C1CCCC1 gave Toxoplasma: 6.835%.
CCOCc1cc(CN2CCn3c(CO)nnc3C2)ccc1OC.O=C(O)CC(O)(CC(=O)O)C(=O)O gave Toxoplasma: -13.55%.
Cc1ccc(NC(=O)c2cccc(OCc3nnnn3C)c2)nc1 gave TcHisRS: 7.921%; MtTrpRS: -1.584%; Pks13 thioesterase: -0.6279%; PfKRS1: 2.286%; Toxoplasma: -2.798%.
CCC(C)NC(=O)c1ccc(CNC(=O)CCC(C)C)cc1 (centres unmarked) gave TcHisRS: -3.191%; MtTrpRS: 13.31%; Pks13 thioesterase: -5.036%; PfKRS1: -8.204%; Toxoplasma: -1.825%.
O=C(O)C(F)(F)F.[H][C@@]12CN(CC3CC3)C[C@]1([H])[C@@H](OC)CCN2C(=O)c1cc(C)nn1CC gave Toxoplasma: -5.996%.
CN(C)CC(=O)N1CCN(CC(O)c2ccc(F)cc2)CC1 (centres unmarked) gave TcHisRS: 1.17%; MtTrpRS: -9.976%; Pks13 thioesterase: -1.459%; PfKRS1: 0.5141%; Toxoplasma: 6.733%.
Cc1nc(C)n(CC2CCCN2c2ncnc3sc(C)c(C)c23)n1 (centres unmarked) gave TcHisRS: 8.04%; MtTrpRS: -3.634%; Pks13 thioesterase: -2.237%; PfKRS1: -2.152%; Toxoplasma: 11.21%.
CN1CCN(C(=O)c2nc3c(o2)CN(C(=O)c2cccnc2)C3)CC1 gave TcHisRS: 1.674%; MtTrpRS: 2.568%; Pks13 thioesterase: -8.101%; PfKRS1: 3.589%.
CN(C)CC(=O)N1CCOC2(CCCN(c3ncccc3F)C2)C1 (centres unmarked) gave TcHisRS: 1.604%; MtTrpRS: -1.126%; Pks13 thioesterase: -1.34%; PfKRS1: 8.466%.
O=C(O)C(F)(F)F.O=C(O)C(F)(F)F.[H][C@@]12CN(CC3CCOCC3)CCO[C@]1([H])CN(Cc1ccc(C)s1)C2 gave Toxoplasma: -5.124%.
Cn1cc(S(=O)(=O)N(Cc2ccc(F)cc2F)C2CC2)cc1C(N)=O gave TcHisRS: 3.704%; MtTrpRS: -4.736%; Pks13 thioesterase: -7.354%; PfKRS1: 6.02%; Toxoplasma: -10.41%.
O=C(O)C(F)(F)F.O=C(O)C(F)(F)F.O=c1ccc2c(n1CCN1CCCC1)CCN(Cc1ccoc1)CC2 gave Toxoplasma: 19.4%.
CCn1c(CN(C)C)nnc1C1CCN(Cc2ccncc2)CC1 gave TcHisRS: -2.513%; MtTrpRS: 0.07246%; Pks13 thioesterase: 4.147%; PfKRS1: 1.336%; Toxoplasma: -16.55%.
c1cnc(N2CCCC3(CCN(Cc4ccsc4)C3)C2)nc1 (centres unmarked) gave TcHisRS: 12.61%; MtTrpRS: -2.215%; Pks13 thioesterase: -5.005%; PfKRS1: 9.441%; Toxoplasma: 1.471%.
CC1c2ncc(Cn3cncn3)n2CCN1C1CCOCC1 (centres unmarked) gave TcHisRS: -0.5405%; MtTrpRS: 6.401%; Pks13 thioesterase: -9.248%; PfKRS1: -0.1187%.
COc1ccc(C(=O)N2Cc3c(Cn4ccnc4)nn(C)c3C2)cc1 gave TcHisRS: 3.825%; MtTrpRS: 2.819%; Pks13 thioesterase: -81.72%; PfKRS1: 0.2026%; Toxoplasma: 6.933%.

For reference, 2 entries once more:

- CN1CCN(C(=O)c2nc3c(o2)CN(C(=O)c2cccnc2)C3)CC1 : TcHisRS: 1.674%; MtTrpRS: 2.568%; Pks13 thioesterase: -8.101%; PfKRS1: 3.589%
- c1cnc(NCc2cncc3c2CCN(Cc2cccnc2)C3)nc1 : TcHisRS: 3.941%; MtTrpRS: -2.222%; Pks13 thioesterase: -5.452%; PfKRS1: -7.732%